# Measured values published in patent publication US20250388936A1, “METHODS AND CELLS FOR THE PRODUCTION OF FLUORINATED COMPOUNDS” (priority 2022, published 2025).
# Legend:
# [1] = Cell-free extracts expressing flA1, pfs and kinBt incubated with SAM and NaF, LC-MS; assay type: biochemical, P. putida KT2440::FRS-T7RNAP; conditions: 20 h incubation with SAM and NaF, flA1, pfs and kinBt under PT7
# [2] = Cell-free extracts incubated with 5′-FDA, 19F-NMR; assay type: biochemical, P. putida KT2440::FRS-T7RNAP
# [3] = nucleosidase and kinase (phosphorylation bypass), isomerase and aldolase, 5′-FDA as substrate
smiles,measurement,setting,value
"Nc1ncnc2c1ncn2[C@@H]1O[C@H](CF)[C@@H](O)[C@H]1O [5′-FDA, 5′-fluoro-5′-deoxyadenosine]",fluorometabolite found by LC-MS,[1],no 5′-FDA is detected
"O=C[C@H](O)[C@H](O)[C@H](O)CF [5′-FDR, 5′-fluorodeoxyribose]",fluorometabolite found by LC-MS,[1],some residual 5′-FDR is also found
"O=P(O)(O)OC1O[C@H](CF)[C@@H](O)[C@H]1O (stereo partly drawn) [5′-FDRP, 5′-fluoro-5′-deoxy-D-ribose 1-phosphate]",fluorometabolite found by LC-MS,[1],most of it converted into the final product 5′-FDRP
"O=C(O)CF [FAc, fluoroacetate]",fluorometabolite detected by 19F-NMR,"[2]; isomerase and aldolase with PNP from Streptomyces sp. strain MA37, 5′-FDA as substrate",could be detected
same,fluorometabolite detected by 19F-NMR,[2]; [3],could be detected
"O=CCF [FAld, fluoroacetaldehyde]",fluorometabolite detected by 19F-NMR,[2]; [3],could be detected
